PubChem BioAssay AID652243, Drosophila RNAi Screening Center, 2013
Assay: 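Knock-downs that decrease or increase androgen receptor reporter signal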 (primary screen). Cell system: Drosophila S2R+ cells. Reagent: long dsRNA against Drosophila genes. Time to read-out: 72 h (48 h, then 24 h hormone). Challenge: synthetic androgen R1881 at 10 nM for 24 h. Measurement: 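Firefly light from an androgen-responsive reporter and Renilla control light per well, raw and unnormalised, for each of two replicates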. Scale: firefly reporter light: higher = more light from androgen-responsive reporter; Renilla control light: higher = more constitutive control signal (cell number, transfection). Hit rule: 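Across duplicate plates, a knock-down whose log firefly/Renilla ratio shifted a set fold down or up from the GFP/LacZ control mean was a hit; the downward cut appears as both 1.5 and 3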. Meaning of the calls: active = hit: reporter lowered or raised; inactive = no hit.
The deposit covers about 24,000 reagents; below is an unselected part of those with a known target gene and a result. In the full data, 246 (1%) got an active call. 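Plates not normalised; calls are printed but the firefly/Renilla ratio behind them is not deposited; fold cut for lowering reported inconsistently.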 Raw values are not corrected between plates. The numbers tell different reagents against one gene apart. Names joined by + are all predicted targets of the reagent. Not stated in the record: the amount of reagent.

The first 3 entries as a preview:
Target gene	dsRNA no.	firefly reporter light, replicate 1	firefly reporter light, replicate 2	Renilla control light, replicate 1	Renilla control light, replicate 2	Call
CG40968 (retired record)	1	1.07e6	7.50e5	2.70e6	2.09e6	inactive
Jabba	1	1.06e6	1.28e6	1.53e6	2.17e6	inactive
Jabba	2	5.93e5	4.39e5	1.33e6	9.13e5	inactive

Results, repeating the preview:
Target gene	dsRNA no.	firefly reporter light, replicate 1	firefly reporter light, replicate 2	Renilla control light, replicate 1	Renilla control light, replicate 2	Call
CG40968 (retired record)	1	1.07e6	7.50e5	2.70e6	2.09e6	inactive
Jabba	1	1.06e6	1.28e6	1.53e6	2.17e6	inactive
Jabba	2	5.93e5	4.39e5	1.33e6	9.13e5	inactive
Rdh (Red herring)	1	7919	12750	55879	79059	inactive
cpb (capping protein beta)	1	7.26e5	8.04e5	2.49e6	2.47e6	inactive
cpb (capping protein beta)	2	9.58e5	9.80e5	8.96e5	1.10e6	inactive
mAChR-B (muscarinic Acetylcholine Receptor, B-type)	1	1.03e5	54439	1.94e6	1.37e6	inactive
mAChR-B (muscarinic Acetylcholine Receptor, B-type)	2	3.02e5	3.50e5	3.92e5	4.17e5	inactive
Ccp84Aa	1	1.79e5	1.30e5	3.61e6	2.38e6	inactive
Ccp84Aa	2	6.39e5	6.22e5	9.41e5	8.73e5	inactive
Dop1R2 (Dopamine 1-like receptor 2)	1	1.43e6	9.37e5	3.27e6	1.19e6	inactive
Dop1R2 (Dopamine 1-like receptor 2)	2	2.00e5	2.01e5	1.40e6	2.74e6	inactive
Dop1R2 (Dopamine 1-like receptor 2)	3	4.33e5	4.66e5	9.43e5	1.09e6	inactive
Nha2 (Na[+]/H[+] hydrogen antiporter 2)	1	1.69e5	1.76e5	2.71e6	2.24e6	inactive
Nha2 (Na[+]/H[+] hydrogen antiporter 2)	2	8666	23289	83118	1.26e5	inactive
Nha2 (Na[+]/H[+] hydrogen antiporter 2)	3	1.23e5	1.60e5	2.19e6	2.62e6	inactive
MED19 (Mediator complex subunit 19)	1	11384	4593	4.65e5	2.15e5	active
MED19 (Mediator complex subunit 19)	2	4.12e5	4.08e5	3.91e5	4.74e5	inactive
MED19 (Mediator complex subunit 19)	3	2.28e5	2.23e5	1.08e6	9.59e5	active
CG32052	1	2.72e5	2.47e5	2.42e6	2.27e6	inactive
CG32052	2	3.02e5	2.70e5	6.95e5	7.30e5	inactive
lncRNA:CR9162 (long non-coding RNA:CR9162)	1	6.87e5	7.72e5	2.45e6	2.42e6	inactive
CG13398	1	2.05e5	1.78e5	1.79e6	1.27e6	inactive
CG31908	1	1.05e6	1.41e6	2.09e6	2.37e6	inactive
Sap47 (Synapse-associated protein 47kD)	1	1.48e5	48609	5.06e5	5.05e5	inactive
Sap47 (Synapse-associated protein 47kD)	2	2.08e5	1.87e5	4.14e5	5.01e5	inactive
CG12325	1	9.64e5	8.55e5	1.53e6	9.92e5	inactive
CG15873	1	3.62e5	3.88e5	2.31e6	2.45e6	inactive
Gfat1 (Glutamine:fructose-6-phosphate aminotransferase 1)	1	1.19e5	98325	4.11e5	3.69e5	inactive
Gfat1 (Glutamine:fructose-6-phosphate aminotransferase 1)	2	2.88e5	4.33e5	9.13e5	9.13e5	inactive
TyrR (Tyramine receptor)	1	1.63e5	1.09e5	1.38e6	1.49e6	inactive
CG3558	1	8.95e5	7.02e5	3.28e6	1.78e6	inactive
CG3558	2	1.64e5	1.44e5	8.67e5	9.94e5	inactive
EMRE (Essential MCU regulator)	1	1.51e5	1.91e5	2.43e6	2.43e6	inactive
CG32507	1	5.60e5	5.04e5	2.94e6	3.80e6	inactive
SLC5A11 (Sodium/solute co-transporter-like 5A11)	1	7.00e5	1.01e6	1.14e6	1.23e6	inactive
Pgm2a (Phosphoglucomutase 2a)	1	1.04e6	1.02e6	1.56e6	1.51e6	inactive
mRpS7 (mitochondrial ribosomal protein S7)	1	5.38e5	5.39e5	1.98e6	1.98e6	inactive
His3:CG33818 + His3:CG33857 + His3:CG33806 + 20 more	1	1.44e5	1.67e5	18333	10207	inactive
stol (stolid)	1	1.04e5	1.11e5	1.55e6	1.77e6	inactive
Cpr31A (Cuticular protein 31A)	1	1.16e5	1.08e5	8.33e5	7.01e5	inactive
Cpr31A (Cuticular protein 31A)	2	3.70e5	3.77e5	9.66e5	1.12e6	inactive
lncRNA:CR41601 (long non-coding RNA:CR41601)	1	1.30e6	1.23e6	2.54e6	2.24e6	inactive
dpr2 (defective proboscis extension response 2)	1	3.04e5	2.16e5	2.05e6	1.67e6	inactive
dpr2 (defective proboscis extension response 2)	2	2.40e5	2.60e5	1.86e6	2.12e6	inactive
piwi (P-element induced wimpy testis)	1	9.07e5	7.36e5	1.23e6	1.32e6	inactive
CG16787	1	2.86e5	4.06e5	1.62e6	1.74e6	inactive
Ance (Angiotensin converting enzyme)	1	1.57e6	9.55e5	7.86e5	1.34e6	inactive
CG32720	1	4.87e5	6.10e5	3.80e5	4.92e5	inactive
mTor (mechanistic Target of rapamycin)	1	6.03e5	7.74e5	7.92e5	1.30e6	inactive
mTor (mechanistic Target of rapamycin)	2					inactive
mTor (mechanistic Target of rapamycin)	3					inactive
CG34125	1	1.08e5	84958	4.36e5	3.65e5	inactive
Amt (Ammonium transporter)	1	2.41e5	1.54e5	2.78e6	2.27e6	inactive
Amt (Ammonium transporter)	2	4.38e5	3.90e5	2.43e6	1.38e6	inactive
PH4alphaNE2 (prolyl-4-hydroxylase-alpha NE2)	1	2.60e5	1.96e5	2.11e6	2.92e6	inactive
PH4alphaNE2 (prolyl-4-hydroxylase-alpha NE2)	2	4.12e5	3.33e5	4.58e5	5.26e5	inactive
Socs16D (Suppressor of Cytokine Signaling at 16D)	1	8.92e5	1.04e6	1.77e6	2.13e6	inactive
Socs16D (Suppressor of Cytokine Signaling at 16D)	2	5.48e5	3.87e5	4.73e5	2.84e5	inactive
